Assay results as given in article PMC12900513.
These are yes or no findings as the source states them, for the method shown. Binding seen in cells or lysates may run through a third protein. Here binding means that the protein was enriched with, or labelled near, the bait; the list need not be complete.

Amino acid sequences for entries named in this document (tags omitted). Residues count along the entry.
UniProt P98161, residues 3118-3233: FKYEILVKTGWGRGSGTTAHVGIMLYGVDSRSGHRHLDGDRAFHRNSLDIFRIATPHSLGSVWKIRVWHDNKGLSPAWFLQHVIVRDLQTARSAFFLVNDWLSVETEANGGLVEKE
UniProt Q9H694: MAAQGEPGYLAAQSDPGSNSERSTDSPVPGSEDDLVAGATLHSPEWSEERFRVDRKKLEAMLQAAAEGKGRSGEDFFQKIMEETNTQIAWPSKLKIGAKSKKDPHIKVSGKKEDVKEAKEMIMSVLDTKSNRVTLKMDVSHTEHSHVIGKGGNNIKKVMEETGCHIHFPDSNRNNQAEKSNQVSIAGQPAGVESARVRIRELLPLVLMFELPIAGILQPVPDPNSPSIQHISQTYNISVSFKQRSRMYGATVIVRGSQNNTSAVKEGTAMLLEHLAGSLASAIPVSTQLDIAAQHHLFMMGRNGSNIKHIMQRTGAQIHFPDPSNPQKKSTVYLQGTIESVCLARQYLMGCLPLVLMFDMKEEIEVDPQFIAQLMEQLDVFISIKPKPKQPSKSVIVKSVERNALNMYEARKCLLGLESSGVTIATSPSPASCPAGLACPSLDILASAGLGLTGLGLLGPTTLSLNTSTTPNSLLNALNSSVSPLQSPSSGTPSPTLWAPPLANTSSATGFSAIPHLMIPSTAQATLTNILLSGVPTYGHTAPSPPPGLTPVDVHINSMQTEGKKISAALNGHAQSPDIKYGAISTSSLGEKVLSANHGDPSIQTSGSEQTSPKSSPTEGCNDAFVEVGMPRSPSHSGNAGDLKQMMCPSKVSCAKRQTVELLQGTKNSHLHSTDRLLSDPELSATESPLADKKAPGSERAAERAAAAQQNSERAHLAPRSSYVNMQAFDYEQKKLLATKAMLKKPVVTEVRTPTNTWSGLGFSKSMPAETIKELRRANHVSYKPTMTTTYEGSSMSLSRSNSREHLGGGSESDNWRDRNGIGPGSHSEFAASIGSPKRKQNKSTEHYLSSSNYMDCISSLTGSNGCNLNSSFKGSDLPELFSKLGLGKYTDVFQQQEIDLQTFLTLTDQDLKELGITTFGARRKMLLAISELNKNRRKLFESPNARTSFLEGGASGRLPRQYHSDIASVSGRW

Target: Polycystin-1 PLAT domain (Polycystin-1, Lipoxygenase, Alpha-Toxin)-YFP fusion (UniProt P98161)
Assay: affinity purification with mass spectrometry; pilot experiments: pulldown from cells stably expressing PLAT-YFP, mass spectrometry

“BICC1 found in the PLAT-YFP pulldown (from UniProt Q9H694 1-974)” was tested, and the binding was “binds”.
